Test results reported in patent US20020141999A1.
Results are given in words; binding and its absence hold for the method and conditions named. Some results given as binding are weak or reduced against the parent protein; the word gives no strength.

By UniProt entry, the sequences of proteins in these tests, tags left out. Where a name states a change or a piece, a line headed by the entry shows the natural chain unless it says otherwise.
UniProt P09564: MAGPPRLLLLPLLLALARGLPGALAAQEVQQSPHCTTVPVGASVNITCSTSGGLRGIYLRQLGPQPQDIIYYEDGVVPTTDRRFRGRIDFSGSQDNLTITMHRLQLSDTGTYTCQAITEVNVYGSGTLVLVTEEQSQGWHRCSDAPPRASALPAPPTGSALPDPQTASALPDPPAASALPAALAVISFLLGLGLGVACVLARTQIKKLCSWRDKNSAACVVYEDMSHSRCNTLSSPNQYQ

Experiments:
[1] = target: T1, human K12, full length, on transfected cells (human) (UniProt Q8WVN6); assay: Fc fusion binding to transfected cells
T1 sequence: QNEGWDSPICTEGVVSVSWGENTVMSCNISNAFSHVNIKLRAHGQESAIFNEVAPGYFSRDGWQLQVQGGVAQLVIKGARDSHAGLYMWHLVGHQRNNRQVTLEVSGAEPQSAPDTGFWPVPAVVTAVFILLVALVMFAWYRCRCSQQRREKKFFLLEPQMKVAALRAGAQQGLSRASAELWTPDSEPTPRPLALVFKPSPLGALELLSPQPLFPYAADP

[2] = target: T1, human K12, full length, on transfected cells (human); assay: Fc fusion binding to transfected cells, 125I anti-human Fc

binding [1]: binds | binding [2]: binds
Substance: human CD7-Fc fusion protein (from UniProt P09564 26-180)
